At least one structure is not confirmed: it was looked up by name or label, or the drawing left a doubt. Some of these results come from one statement about several compounds together.
Columns and labels:
LNCaP cells = assay: DCF dye oxidation assay, ROS in LNCaP cells; type: cell-based, human; details: for concentration that blocks androgen-induced ROS production: 1 nM R1881
Excerpt: Described herein are tests for the effect of these three compounds on the androgen-induced ROS production in androgen-dependent LNCaP cells using the DCF dye oxidation assay (see the complete proposal). All data were normalized to the DCF dye fluorescence of control untreated LNCaP cells and expressed as percent of control.
Culture conditions for LNCaP androgen response studies included use of cells passage 40-90, hormone depleted media containing 4% charcoal-stripped FBS plus 1% non-stripped FBS (F1C4), and synthetic androgen R1881 (methyltrienolone; NEN, Boston, Mass.) at 1 nM for maximal induction of JunD and ROS as described before (17,19,20). For AR-JunD interaction studies in AR-transfected Hep3B cells, R1881 was used at 2 nM in F1C4 medium to maximally induce the AR.
Graded concentrations of each of the 8-10 designed peptides identified herein are further tested for their ability to inhibit growth of androgen-dependent LNCaP and LAPC-4 cells using a DNA fluorescence assay and androgen-induced ROS using DCFH dye oxidation assay.

JunD = JunD level and activity in androgen-exposed LNCaP cells; type: cell-based, human; details: 96 hour androgen exposure

Structure (SMILES)	concentration that blocks androgen-induced ROS production (LNCaP cells)	androgen-induced JunD protein level, DNA binding and transcriptional activity (JunD)	androgen-induced ROS generation (LNCaP cells; blocking JunD over-expression)
NN(CC(=O)O)CC(=O)O	< 1 µM		
O=C(O)CN(CC(=O)O)N1C(=O)c2ccccc2C1=O [2,2′-(1,3-dioxoisoindolin-2-ylazanediyl)diacetic acid]	< 1 µM		
CC(O)(CS(=O)(=O)c1ccc(F)cc1)C(=O)Nc1ccc(C#N)c(C(F)(F)F)c1 (stereo not shown) [bicalutamide]		completely attenuates	abrogated
